# Laboratory results taken from PMC6943670, “Investigating the Binding Mode of Reversible LSD1 Inhibitors Derived from Stilbene Derivatives by 3D-QSAR, Molecular Docking, and Molecular Dynamics Simulation” (Molecules, 2019).
# The match of structure and compound is tentative.
# Target: LSD1 (Homo sapiens, UniProt O60341)
# Experiment: LSD1 enzyme inhibition assay (H3K4me2 substrate, Amplex Red/HRP fluorescence)
# Settings: newly synthesized compounds
structure (smiles),measurement,value
O=C(/C=C/c1ccc(/C=C/c2ccc3c(c2)CCO3)cc1)NO,IC50,4.67 µM
same,pIC50,5.331
